This experiment has as its target Tumor necrosis factor-alpha (TNF-α) antigen (human) (UniProt P01375). Put plainly: SPR; plasmonic sensor in Kretschmann configuration with lateral position (Goos-Hänchen) shift read-out; BSA flowed over the TNF-alpha sensing surface at 10^5 times the concentration of the anti-TNF antibody, compared with flowing the monoclonal anti-TNF antibody (Fig. S7); both purified. (In general: Surface plasmon resonance follows binding to a sensor surface in real time, without labels.)

Amino acid sequences for entries named in this document (tags omitted). Residues count along the entry.
UniProt P01375, residues 77-233: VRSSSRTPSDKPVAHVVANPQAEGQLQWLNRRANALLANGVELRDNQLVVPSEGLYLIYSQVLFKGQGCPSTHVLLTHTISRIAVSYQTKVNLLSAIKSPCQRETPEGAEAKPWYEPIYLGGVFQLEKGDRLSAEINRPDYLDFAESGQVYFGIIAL
UniProt P02769, residues 25-607: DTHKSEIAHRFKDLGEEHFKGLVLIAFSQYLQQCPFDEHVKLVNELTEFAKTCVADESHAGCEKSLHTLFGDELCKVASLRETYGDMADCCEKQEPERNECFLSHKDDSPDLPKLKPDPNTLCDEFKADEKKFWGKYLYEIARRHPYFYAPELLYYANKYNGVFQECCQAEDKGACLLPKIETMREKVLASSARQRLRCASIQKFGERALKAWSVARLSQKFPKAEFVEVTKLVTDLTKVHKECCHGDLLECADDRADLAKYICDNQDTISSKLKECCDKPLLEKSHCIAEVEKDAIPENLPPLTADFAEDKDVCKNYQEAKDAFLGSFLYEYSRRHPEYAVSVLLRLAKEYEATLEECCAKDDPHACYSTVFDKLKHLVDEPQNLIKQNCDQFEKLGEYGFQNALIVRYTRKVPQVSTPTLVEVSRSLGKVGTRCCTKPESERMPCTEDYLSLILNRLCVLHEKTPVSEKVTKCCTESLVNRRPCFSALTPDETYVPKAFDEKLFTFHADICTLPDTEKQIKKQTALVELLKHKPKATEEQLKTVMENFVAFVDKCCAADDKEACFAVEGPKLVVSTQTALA

The values below come from article PMC7985234.

No constants are given. Whether binding was seen depends on the method and setting.

With “Bovine Serum Albumin (BSA) (from UniProt P02769 25-607)”, the binding result is reported as “no binding (tested: 10^5 times higher than anti-TNF antibody)”.
